# Results are given in words; binding and its absence hold for the method and conditions named. In cells and extracts the contact can be indirect. Binding calls can cover weak binding; strength is not graded here. For part of these data: Tags and fused reporters may be left off the sequences shown.
# Sequences of proteins named here, by UniProt entry; tags and fusion partners are left off. A change or cut given only in a name is not applied to a line headed by its entry. Residues count along the entry.
# UniProt P38646, residues 47-679: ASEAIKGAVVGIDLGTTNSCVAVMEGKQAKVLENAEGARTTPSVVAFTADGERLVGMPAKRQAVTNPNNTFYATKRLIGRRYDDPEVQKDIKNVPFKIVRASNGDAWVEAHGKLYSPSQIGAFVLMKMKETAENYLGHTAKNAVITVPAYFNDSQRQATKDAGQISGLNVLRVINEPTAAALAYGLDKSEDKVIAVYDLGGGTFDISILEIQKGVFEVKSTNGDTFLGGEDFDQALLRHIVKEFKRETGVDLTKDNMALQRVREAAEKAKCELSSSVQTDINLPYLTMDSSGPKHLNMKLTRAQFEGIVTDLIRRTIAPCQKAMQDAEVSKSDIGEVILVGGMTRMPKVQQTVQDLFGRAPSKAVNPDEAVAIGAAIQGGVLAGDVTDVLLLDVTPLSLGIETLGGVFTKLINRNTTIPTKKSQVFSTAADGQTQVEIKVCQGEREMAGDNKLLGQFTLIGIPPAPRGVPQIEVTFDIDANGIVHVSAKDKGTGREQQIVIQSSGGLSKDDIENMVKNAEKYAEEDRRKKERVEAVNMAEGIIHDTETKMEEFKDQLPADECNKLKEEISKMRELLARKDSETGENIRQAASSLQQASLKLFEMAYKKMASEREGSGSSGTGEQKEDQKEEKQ
# UniProt Q86WV6: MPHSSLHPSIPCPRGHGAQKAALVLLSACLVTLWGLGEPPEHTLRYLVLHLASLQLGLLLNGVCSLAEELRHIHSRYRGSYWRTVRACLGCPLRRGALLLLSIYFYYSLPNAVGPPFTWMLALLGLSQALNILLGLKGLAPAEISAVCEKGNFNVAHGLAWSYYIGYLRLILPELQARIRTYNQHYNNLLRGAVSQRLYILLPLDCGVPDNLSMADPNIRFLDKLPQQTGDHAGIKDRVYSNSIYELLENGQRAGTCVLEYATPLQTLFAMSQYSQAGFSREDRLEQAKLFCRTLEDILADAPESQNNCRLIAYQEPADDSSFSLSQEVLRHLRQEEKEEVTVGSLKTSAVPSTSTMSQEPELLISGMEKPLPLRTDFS
# Key:
# HA-VDAC2-WT (pCDNA3) = target: T1, HA-VDAC2-WT (pCDNA3) (UniProt P45880); experiment: co-IP; HA-IP (anti-HA agarose) from HEK293T cells transfected with the indicated constructs, immunoblot; Figures 3Q, 4H, 4J
# T1 sequence: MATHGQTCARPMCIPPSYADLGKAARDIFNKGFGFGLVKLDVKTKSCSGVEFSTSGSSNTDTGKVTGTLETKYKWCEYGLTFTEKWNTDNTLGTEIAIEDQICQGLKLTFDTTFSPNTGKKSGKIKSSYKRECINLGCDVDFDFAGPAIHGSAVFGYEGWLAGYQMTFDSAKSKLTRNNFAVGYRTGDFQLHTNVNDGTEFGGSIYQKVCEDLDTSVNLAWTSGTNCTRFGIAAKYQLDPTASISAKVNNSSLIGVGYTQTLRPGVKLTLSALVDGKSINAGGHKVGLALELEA
# [1] = target: GST-GRP75 (CMV-GST-GRP75) (human (hORFeome V5.1 collection)) (UniProt P38646); experiment: pull-down; GST pull-down (glutathione agarose) from HEK293T cells transfected with the indicated constructs, immunoblot; Figure 4K
binding (HA-VDAC2-WT (pCDNA3)),binding [1],Substance
binds,–,Flag-STING-C88A (pCDNA3.0) (from UniProt Q86WV6)
–,binds,Flag-STING-C88A/C91A (pCDNA3.0) (from UniProt Q86WV6)
binds,–,Flag-STING-C91A (pCDNA3.0) (from UniProt Q86WV6)
